Data: publication PMC3050690

Molecular target: T1, MalE-GadX (GadX fused to maltose-binding protein) (Escherichia coli K-12 (genomic library)) (UniProt P37639)
T1 sequence (looked up): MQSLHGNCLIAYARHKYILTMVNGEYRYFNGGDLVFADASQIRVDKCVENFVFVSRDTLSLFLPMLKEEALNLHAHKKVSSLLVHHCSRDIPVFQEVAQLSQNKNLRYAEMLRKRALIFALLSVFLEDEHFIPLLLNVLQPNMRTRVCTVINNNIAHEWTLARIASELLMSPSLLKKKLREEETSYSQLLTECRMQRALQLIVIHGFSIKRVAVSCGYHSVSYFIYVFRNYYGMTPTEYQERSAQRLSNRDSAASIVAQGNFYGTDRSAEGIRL
Assay: EMSA
Details: 2, 4, 6 pmol protein in 10 ul, 6 fmol DNA, dose-dependent shift; EMSA: binding buffer of Tramonti et al. (not given), room temperature 20 min, 5% native PAGE 0.5X TBE; recombinant protein; residues 1-274; protein details: N-terminal MBP (MalE); label: 32P (5' end); probe letters rebuilt from the primers and the genome

GGCTCTAGAAAACGGTGCCATCATACTTTGCAAACGTACCACTTTTTCGGCTAACTGCGCTTCATACTGTTCTGTTGGAAGGTGTTCGGGGGTCATGATGTATCCTGAAAAATTAAAGTACGCGGCGATTGTAGGGATTGCTCATCAGATGTCCAGATCTTGATGAATTCCTATTTGTGAGCTACGTCTGGACAGTAACTTGTTACAACCTGTAGCATCCACTTGCCGGTCCTGTGAGTTAATAGGGAATCCAGTGCGAATCTGGAGCTGACGCGCAGCGGTAAGGAAAGGTGCGATGATTGCGTTATGCGGACACTGCCATTCGGTGGGAAGTCATCATCTCTTAGTATCTTAGATACCCCTCCAAGCCCGAAGACCTGCCGGCCAACGTCGCATCTGGTTCTCATCATCGCGTAATATTGATGAAACCTGCGGCATCCTTCTTCTATTGTGGATGCTTTACAATGATAAGCTTGCC (double strand) [PbtuB 461-bp promoter fragment]
binding result: binds

Tags and fusion partners may be left off the protein sequences shown.
